Laboratory results reported in PubChem BioAssay AID1347076 (National Center for Advancing Translational Sciences (NCATS), 2019).
Where “and” joins values, the source holds several entries; their conditions need not be identical. Identical values can stand only once. Among all 400,000 compounds or so, about 13,000 (3.2%) were called active. This list was built around the results that the source calls inconclusive (neither active nor inactive); the mix of calls is not that of the screen. The call rests on the fitted dose curve; in most records, active means well fitted cell-killing curve with a large enough effect; inconclusive means small, poorly fitted or top-dose-only effect, or effect the other way; inactive means flat fitted curve, though single readings scatter. A potency beside an inconclusive call is a rough fit, not a confirmed value.

assay: qHTS assay for MDR1-selective chemotherapeutics: Primary screen using the drug-selected MDR subline cells KB-V1; details: KB-V1 MDR cells viability, CellTiter-Glo, 72 h; activity change, negative = cytotoxicity: at 46.1 µM (top of the series); further: nearly all actives have a fitted effect of over 60% in size
In short: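 Drug-selected KB-V1 cells, grown in DMEM lacking phenol red with 10% FBS, receive compound titrations; after three days at 37 degrees C, surviving cell ATP is quantified by CellTiter-Glo luminescence and responses normalized and curve-fitted.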
On the % scale 0 is the no-effect control and ±100 the full control effect; potency means the concentration at half of the fitted maximal effect.

Row | Structure (SMILES) | Potency | activity change, negative = cytotoxicity
1 | COc1ccc(-c2csc(NCCc3nc4cc(Cl)c(N5CCCCC5)cc4n3CCOCCO)n2)cc1 | inactive | –
2 | Cc1ccc(NC(=O)C2CCN(c3ncnc4sc(C)c(C)c34)CC2)cc1S(=O)(=O)N(C)C | inconclusive: 20.6 µM [cytotoxic, single point] | –
3 | NNc1nc(-c2ccccc2Cl)nc2sc3c(c12)CCCC3 | active: 4.61 µM | –
4 | CC(C)Oc1ccc(CNC(=O)c2ccc3c(c2)N(C)CCS3)cc1 | inconclusive: 3.66 µM [rising, partial curve, poor fit] | –
5 | CC(=O)Nc1cccc(-c2ccnc3c2CC(C)(C(=O)NCc2ccc(F)c(F)c2)O3)c1 (stereo unspecified) | inconclusive: 29.1 µM [cytotoxic, single point] | –
6 | Cc1ccc2c(CC(=O)N3CCN(S(=O)(=O)c4ccc5c(c4)OCCO5)CC3)coc2c1 | inconclusive: 18.4 µM [cytotoxic, single point] | –
7 | CC(=O)Nc1cc(-c2ccoc2)cn2c(-c3ccccc3)cnc12 | inactive | –
8 | COc1ccc(CCc2nnc(CCC(=O)NCc3cnc4ccccn34)o2)cc1 | inconclusive: 23.1 µM [rising, single point] | –
9 | COc1ccc(CN(C)C(=O)c2ccc(OCC(=O)Nc3cccc(C(F)(F)F)c3)c(OC)c2)cc1 | inconclusive: 16.4 µM [cytotoxic, partial curve, poor fit] | –
10 | CCOC(=O)C1=C(Nc2ccccc2)CC(C)(O)C(C(=O)OCC)C1c1ccc(Cl)cc1 (stereo unspecified) | active: 11.6 µM and active: 20.6 µM | –
11 | O=C(c1ccco1)N(Cc1ccc(Cl)cc1)C1CCS(=O)(=O)C1 (stereo unspecified) | inconclusive: 20.6 µM [rising, single point] | –
12 | COC(=O)C1=C(C(=O)OC)N2C=CC=CC2(C)C(C(=O)OC)=C1C(=O)OC (stereo unspecified) | – | inconclusive: -91%
13 | Cc1sc2ccccc2[n+]1C | inconclusive: 29.1 µM [rising, single point] | –
14 | CCOC(=O)C1(Cc2ccccc2C(F)(F)F)CCN(Cc2ccc(COC)o2)CC1 | inconclusive: 8.2 µM [cytotoxic, partial curve] | –
15 | CCN(CCNCC(O)COc1ccccc1C(C)C)c1cccc(C)c1 (stereo unspecified) | inconclusive: 29.1 µM [cytotoxic, single point] | –
16 | Cc1cccc(NC(=O)Cn2nnc3sc4c(c3c2=O)CC(C)(C)OC4)c1 | inactive | –
17 | COc1cccc(CN2C(=O)C3(SCC(=O)N3c3cc(C)cc(C)c3)c3ccccc32)c1 (stereo unspecified) | inconclusive: 23.1 µM [cytotoxic, partial curve, poor fit] | –
18 | COc1cc(C)ccc1OCCOCCN(C)Cc1ccccc1 | inconclusive: 20.6 µM [cytotoxic, partial curve, poor fit] | –
19 | COc1ccccc1N1CCN(S(=O)(=O)c2cc(-c3cc(C)no3)ccc2C)CC1 | inactive | –
20 | COc1ccc2c(=O)c3c(=O)n(Cc4ccco4)c(C(C)C)nc3oc2c1 | active: 20.6 µM | –
21 | CCc1ccc2oc(C(=O)NCCc3ccc(OC)c(OC)c3)cc(=O)c2c1 | active: 5.17 µM | –
22 | COc1ccc2oc(C(=O)NCc3cc(OC)c(OC)cc3OC)c(C)c2c1 | inconclusive: 4.11 µM [cytotoxic, full curve] | –
23 | CC(=O)Nc1ccc(NC(=O)Cn2c(=O)n(-c3ccccc3)c(=O)c3oc4ccccc4c32)cc1 | inactive | –
24 | CCOC(=O)c1nnn2c1nc(N1CCCCC1)c1ccccc12 | inconclusive: 8.2 µM [cytotoxic, partial curve] | –

Row | Structure (SMILES) | Potency | activity change, negative = cytotoxicity
25 | C=CCn1c(SCC(=O)N2CCN(c3ccccc3)CC2)nc2c([nH]c3ccccc32)c1=O | inactive | –
26 | COc1ccc(-c2cc(C(=O)N3CCN(c4ccccc4)CC3)c3ccccc3n2)cc1 | active: 7.31 µM | –
27 | O=C(O)c1ccc(OS(=O)(=O)c2cccc(C(F)(F)F)c2)cc1 | inconclusive: 20.6 µM [rising, partial curve, poor fit] | –
28 | Cc1ccc(C(=O)COC(=O)c2c(C)cc(=O)oc2C)cc1[N+](=O)[O-] | inconclusive: 9.2 µM [cytotoxic, partial curve] | –
29 | COc1ccc(NC(=O)CN2C(=O)C(C)Oc3ccccc32)cc1 (stereo unspecified) | inconclusive: 18.4 µM [cytotoxic, partial curve, poor fit] | –
30 | Cc1ccc(CSc2nnc(CNc3ccc(F)cc3)o2)cc1 | inactive | –
31 | O=C(Cc1coc2cc(O)ccc12)NNC(=O)c1cccs1 | inconclusive: 5.17 µM [rising, full curve, poor fit] | –
32 | COc1ccc(C2=NOC3(CC(=O)N(c4ccc(C)cc4)C3=O)C2)cc1 (stereo unspecified) | inconclusive: 29.1 µM [rising, single point] | –
33 | CCc1nc(Nc2cccc(O)c2)c2oc3ccccc3c2n1 | inconclusive: 13 µM [cytotoxic, partial curve, poor fit] | –
34 | O=C(c1ccccc1F)N1CCN(c2ccc([N+](=O)[O-])c3cccnc23)CC1 | inconclusive: 9.2 µM [cytotoxic, partial curve] | –
35 | O=C(NNc1c(Cl)cncc1Cl)c1sccc1Cl | inconclusive: 29.1 µM [rising, single point] | –
36 | CCOc1ccccc1NC(=O)C1CC(=O)n2ncnc2N1 (stereo unspecified) | inactive | –
37 | CCN(C(=O)CO/N=C/c1ccc(OC)cc1OC)c1c(N)n(Cc2ccccc2)c(=O)[nH]c1=O | inconclusive: 29.1 µM [rising, single point] | –
38 | CNC(=O)CSc1nnc(-c2ccco2)n1-c1ccc(C)cc1 | inactive | –
39 | C=C[C@@H]1c2ccccc2N(S(=O)(=O)c2ccc(C)cc2)[C@H](c2ccccc2)C1(C#N)C#N | inconclusive: 16.4 µM [cytotoxic, partial curve] | –
40 | CC(C)c1ccc(NC(=S)NCc2cccs2)cc1 | active: 23.1 µM | –
41 | Cc1ccc2nsnc2c1NC(=O)c1ccc([N+](=O)[O-])o1 | inconclusive: 29.1 µM [cytotoxic, single point] | –
42 | CC(=O)c1cccc(NCC(=O)Nc2cc(S(=O)(=O)N3CCCCC3)ccc2C)c1 | inconclusive: 16.4 µM [cytotoxic, single point] | –
43 | Cc1ccc(C2(c3ccc(C)cc3)NC(=O)N(Cc3c(C)noc3C)C2=O)cc1 | – | inconclusive: -33.2% [cytotoxic]
44 | COC(=O)c1ccccc1NC(=O)CSc1nnc(CNS(=O)(=O)c2ccc(C)cc2)n1C | inconclusive: 16.4 µM [rising, partial curve, poor fit] | –
45 | N=c1sccn1CC(=O)Nc1ccccc1Cc1ccccc1 | inconclusive: 23.1 µM [cytotoxic, partial curve] | –
46 | Clc1ccc(CN2CCCCCC2)cc1 | inactive | –
47 | CC(C1=C(CCN(C)C)Cc2ccccc21)c1ccccn1 (stereo unspecified) | active: 16.4 µM | –
48 | Fc1ccc(N2CCN(Cc3cnc(Cl)s3)CC2)cc1 | inconclusive: 23.1 µM [cytotoxic, single point] | –

Row | Structure (SMILES) | Potency | activity change, negative = cytotoxicity
49 | CCOC(=O)C1=C(CN2CCN(c3cc(C)ccc3C)CC2)NC(=O)NC1c1ccccc1 (stereo unspecified) | inconclusive: 29.1 µM [cytotoxic, single point] | –
50 | CC(O)CCC(=O)NCCNC(=O)CCC(C)O (stereo unspecified) | inactive | –
51 | COc1ccc(N(C(=O)c2ccccc2C)S(=O)(=O)c2ccc(C)cc2)cc1 | inactive | –
52 | COc1ccc(NS(=O)(=O)c2cccc(C(=O)NNC(=O)CNC(=O)c3ccco3)c2)cc1 | inconclusive: 16.4 µM [rising, partial curve, poor fit] | –
53 | Cc1ccc2c(c1)c1c(c(=O)n(-c3ccccc3)c(=O)n1CC(=O)NCCC1=CCCCC1)n2C | inactive | –
54 | O=C(Nc1ccc(-c2nc3ccccc3s2)cc1)C1=COCCO1 | inactive | –
55 | Cn1c(=O)cc(-c2ccccc2)c2ccccc21 | inconclusive: 23.1 µM [cytotoxic, partial curve, poor fit] | –
56 | COc1ccccc1C(=O)c1nc2ccccc2n1C | inconclusive: 29.1 µM [rising, single point] | –
57 | C/C(CC(C)(C)c1ccccc1)=N\NS(=O)(=O)c1ccccc1 | inconclusive: 20.6 µM [cytotoxic, single point] | –
58 | CCCn1c(SCc2cc(=O)oc3ccc4ccccc4c23)n[nH]c1=O | inactive | –
59 | CCOC(=O)c1cc(-c2ccc(C)cc2)n(CC(=O)Nc2ccc(OC)c(Cl)c2)c1C | inconclusive: 29.1 µM [cytotoxic, single point] | –
60 | Cc1cc(Nc2cc(Cl)ccc2C)n2nc(Cc3ccccc3)nc2n1 | inactive | –
61 | COc1ccc(OCCSc2ncn[nH]2)cc1 | inactive | –
62 | O=C(Nn1c(C2CCC2)nc2ccccc2c1=O)C1CCC1 | inactive | –
63 | CCC(=O)Nc1cccc(-n2nnnc2SCC(=O)c2ccc(C)c(C)c2)c1 | inconclusive: 20.6 µM [cytotoxic, single point] | –
64 | CC(=O)Nc1nonc1-c1nc2ccccc2n1Cc1ccccc1 | active: 16.4 µM | –
65 | C=CCn1c(CCCNC(=O)c2ccccc2OC)nc2ccccc21 | inconclusive: 2.31 µM [cytotoxic, partial curve, poor fit] | –
66 | CC(=O)c1ccc(S(=O)(=O)NCCC(=O)OCC(=O)N(Cc2ccccc2)C(C)(C)C)cc1 | active: 20.6 µM | –
67 | CSC1=N/C(=C\c2ccccc2C)C(=O)S1 | inconclusive: 2.31 µM [rising, full curve, poor fit] | –
68 | CC(=O)c1cccc(OCC(O)CN2CCN(C(=O)c3ccco3)CC2)c1 (stereo unspecified) | inactive | –
69 | Cc1ccccc1C(=O)NNC(=S)NC(=O)c1ccc(Cl)cc1Cl | inconclusive: 23.1 µM [cytotoxic, single point] | –
70 | CCCOc1ccccc1C1CC(=O)Nc2cc3c(cc21)OCCO3 (stereo unspecified) | active: 2.59 µM | –
71 | Cn1c(SCC#N)nc2ccccc2c1=O | inconclusive: 20.6 µM [rising, single point] | –
